Measured values reported in article PMC5059453.
Results are given in words; binding and its absence hold for the method and conditions named. A result given as binding can be weak or reduced; the word gives no strength. For part of these data: In cells and extracts the contact can be indirect.

By UniProt entry, the sequences of proteins in these tests, tags left out. Where a name states a change or a piece, a line headed by the entry shows the natural chain unless it says otherwise.
UniProt Q01939: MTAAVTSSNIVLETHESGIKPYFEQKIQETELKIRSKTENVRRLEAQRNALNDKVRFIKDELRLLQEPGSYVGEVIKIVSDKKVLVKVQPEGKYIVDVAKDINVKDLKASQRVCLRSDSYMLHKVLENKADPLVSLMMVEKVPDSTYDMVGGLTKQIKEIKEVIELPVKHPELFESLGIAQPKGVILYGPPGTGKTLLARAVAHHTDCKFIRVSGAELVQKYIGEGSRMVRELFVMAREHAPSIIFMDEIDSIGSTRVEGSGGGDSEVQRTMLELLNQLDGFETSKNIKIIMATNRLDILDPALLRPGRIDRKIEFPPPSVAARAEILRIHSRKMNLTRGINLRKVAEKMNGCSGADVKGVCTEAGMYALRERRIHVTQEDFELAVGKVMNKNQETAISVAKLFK
UniProt P48510: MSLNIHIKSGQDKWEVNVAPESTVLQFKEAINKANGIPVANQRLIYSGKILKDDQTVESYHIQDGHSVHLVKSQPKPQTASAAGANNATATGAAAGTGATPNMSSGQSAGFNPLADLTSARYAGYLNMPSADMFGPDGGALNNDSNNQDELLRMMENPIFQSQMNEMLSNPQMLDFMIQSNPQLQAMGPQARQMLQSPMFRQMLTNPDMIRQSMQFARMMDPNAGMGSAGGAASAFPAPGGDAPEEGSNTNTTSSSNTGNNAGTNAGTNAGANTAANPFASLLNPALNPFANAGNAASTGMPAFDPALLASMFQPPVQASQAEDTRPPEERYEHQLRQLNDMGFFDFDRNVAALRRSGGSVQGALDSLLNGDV

B1: Rpn10-WT expressed in yeast (protein, UniProt P38886 1-268)
chain: MVLEATVLVIDNSEYSRNGDFPRTRFEAQIDSVEFIFQAKRNSNPENTVGLISGAGANPRVLSTFTAEFGKILAGLHDTQIEGKLHMATALQIAQLTLKHRQNKVQHQRIVAFVCSPISDSRDELIRLAKTLKKNNVAVDIINFGEIEQNTELLDEFIAAVNNPQEETSHLLTVTPGPRLLYENIASSPIILEEGSSGMGAFGGSGGDSDANGTFMDFGVDPSMDPELAMALRLSMEEEQQRQERLRQQQQQQDQPEQSEQPEQHQDK
B2: Rpn10-K84R expressed in yeast (protein, UniProt P38886 1-268)
chain: MVLEATVLVIDNSEYSRNGDFPRTRFEAQIDSVEFIFQAKRNSNPENTVGLISGAGANPRVLSTFTAEFGKILAGLHDTQIEGRLHMATALQIAQLTLKHRQNKVQHQRIVAFVCSPISDSRDELIRLAKTLKKNNVAVDIINFGEIEQNTELLDEFIAAVNNPQEETSHLLTVTPGPRLLYENIASSPIILEEGSSGMGAFGGSGGDSDANGTFMDFGVDPSMDPELAMALRLSMEEEQQRQERLRQQQQQQDQPEQSEQPEQHQDK
B3: apo-Rpn10 (protein, UniProt P38886 1-268)
chain: MVLEATVLVIDNSEYSRNGDFPRTRFEAQIDSVEFIFQAKRNSNPENTVGLISGAGANPRVLSTFTAEFGKILAGLHDTQIEGKLHMATALQIAQLTLKHRQNKVQHQRIVAFVCSPISDSRDELIRLAKTLKKNNVAVDIINFGEIEQNTELLDEFIAAVNNPQEETSHLLTVTPGPRLLYENIASSPIILEEGSSGMGAFGGSGGDSDANGTFMDFGVDPSMDPELAMALRLSMEEEQQRQERLRQQQQQQDQPEQSEQPEQHQDK

Assays:
[1] = target: Tap-proteinA-Rpt6 (bait of the affinity-purified proteasomes) (S. cerevisiae) (UniProt Q01939); assay: pull-down; TAP-Rpt6 proteasomes affinity-purified from yeast lysate on calmodulin resin; 50 mM Tris 7.4, 200 mM NaCl, 10 mM MgCl2, 2 mM CaCl2, 10% glycerol, 1 mM ATP, 1 mM DTT; bound fraction blotted with anti-Rpn10
His6-Dsk2-UbL domain = His6-Dsk2-UbL domain (UniProt P48510); assay: pull-down; His6-tagged proteins immobilized on Ni2+ beads pull down purified Rpn10 or Ub-Rpn10 (42 μl of 2.8 mg ml^−1); 25 mM HEPES, 75 mM NaCl, 0.25% Triton X-100, 1 mM DTT, pH 7.4; 3 h at 4 °C; western blot with α-Rpn10; both purified

Row | Binder | binding [1] | binding (His6-Dsk2-UbL domain)
1 | B1 | binds | –
2 | B2 | binds | –
3 | B3 | – | binds
